In patent publication US20210355175A1 (University of Washington, published 2021) one finds binding data, which are given here for four molecules.

Where a chain is given by its changes, count along the chain named. Results are given in words; binding and its absence hold for the method and conditions named. For some assays here: Binding seen in cells or lysates may run through a third protein. Some results given as binding are weak or reduced against the parent protein; the word gives no strength. Where a sequence is shown, tags or fusion partners need not be part of it.

Assay [1] addresses T1, DHD13-37 chain 13a.
T1 sequence: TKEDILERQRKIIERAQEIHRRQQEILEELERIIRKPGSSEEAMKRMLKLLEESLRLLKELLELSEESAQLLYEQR
The assay is described as follows: co-purification on Ni-NTA after co-expression in E. coli (induced dimerization, DHD13-37).

Assay [2] addresses T2, DHD13-37 chain 37a, hexahistidine-TEV tagged.
T2 sequence: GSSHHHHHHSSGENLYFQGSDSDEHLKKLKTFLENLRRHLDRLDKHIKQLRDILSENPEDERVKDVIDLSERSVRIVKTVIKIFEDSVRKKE
The assay is described as above.

Assay [3] concerns the target T3, DHD9-13 chain 13b, hexahistidine-TEV tagged.
T3 sequence: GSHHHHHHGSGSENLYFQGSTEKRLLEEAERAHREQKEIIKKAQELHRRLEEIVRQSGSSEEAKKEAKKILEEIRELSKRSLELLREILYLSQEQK
Briefly: co-purification on Ni-NTA after co-expression in E. coli (induced dimerization, DHD9-13).

Assay [4] has as its target T4, DHD9 chain b.
T4 construct: also called 9b; 9_b
T4 chain: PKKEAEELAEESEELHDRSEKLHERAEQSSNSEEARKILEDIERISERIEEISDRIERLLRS
The assay is described as above.

For assay [5], the target named is T5, DHD15-37 chain 15a.
T5 sequence: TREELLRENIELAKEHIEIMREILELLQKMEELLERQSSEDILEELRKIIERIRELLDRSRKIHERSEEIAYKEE
The assay is described as follows: co-purification on Ni-NTA after co-expression in E. coli (induced dimerization, DHD15-37).

Assay [6] has as its target T6, DHD15-37 chain 37b, hexahistidine-TEV tagged.
T6 sequence: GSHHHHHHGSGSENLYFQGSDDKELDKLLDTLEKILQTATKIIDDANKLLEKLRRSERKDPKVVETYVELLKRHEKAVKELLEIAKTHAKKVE
Described as above.

The target in assay [7] is T7, DHDSC_9-13-37 chain 37b, hexahistidine-TEV tagged.
T7 sequence: T6 sequence with H3S, G9H, G11S, S12G
The assay is described as follows: size exclusion chromatography.

For assay [8] the target is unchanged. Briefly: co-expression in E. coli, one b monomer His-tagged.

B1: DHD13-37 fusion, chain 13b-37b (designed binder)
chain: TEKRLLEEAERAHREQKEIIKKAQELHRRLEEIVRQSGSSEEAKKEAKKILEEIRELSKRSLELLREILYLSQEQKGSEGSGSEGSGSDDKELDKLLDTLEKILQTATKIIDDANKLLEKLRRSERKDPKVVETYVELLKRHEKAVKELLEIAKTHAKKVE
Consider B1, for which the binding entry in assay [1] and in assay [2] was “binds” each time.

B2: DHD9-13 fusion, chain 9a-13a (designed binder)
chain: PKEEARELIRKQKELIKEQKKLIKEAKQKSDSRDAERIWKRSREINRESKKINKRIKELIKSGSEGSGSEGSGSTKEDILERQRKIIERAQEIHRRQQEILEELERIIRKPGSSEEAMKRMLKLLEESLRLLKELLELSEESAQLLYEQR
Turning to B2, the binding result in assay [3] and in assay [4] was “binds” throughout.

B3: DHD15-37 fusion, chain 15b-37a (designed binder)
chain: TERKLLERSRRLQEESKRLLDEMAEIMRRIKKLLDDPDSEDIAREIKELLRRLKEIIERNQRIAKEHEYIARERSGPGSGSEGSDSDEHLKKLKTFLENLRRHLDRLDKHIKQLRDILSENPEDERVKDVIDLSERSVRIVKTVIKIFEDSVRKKE
Consider B3, for which the binding entry in assay [5] and in assay [6] was “binds” in each case.

B4: DHDSC_9-13-37 scaffold, chain 9a-13a-37a (designed binder)
chain: PKEEARELIRKQKELIKEQKKLIKEAKQKSDSRDAERIWKRSREINRESKKINKRIKELIKSGSEGSGSEGSGSTKEDILERQRKIIERAQEIHRRQQEILEELERIIRKPGSSEEAMKRMLKLLEESLRLLKELLELSEESAQLLYEQRGSEGSGSEGSGSDSDEHLKKLKTFLENLRRHLDRLDKHIKQLRDILSENPEDERVKDVIDLSERSVRIVKTVIKIFEDSVRKKE
With B4, the binding entry in assay [7] and in assay [8] was “binds” throughout.
